# According to article PMC10759521:
# These are yes or no findings as the source states them, for the method shown. Binding seen in cells or lysates may run through a third protein. Some binding calls cover weakened binding; strength is not graded here.
# Molecular target: Tumor protein p53 (human (endogenous in A549 and SPC-A1)) (UniProt P04637)
# Assay: co-IP; A549 or SPC-A1 whole cell lysates, pre-cleared with Protein A/G PLUS-Agarose, immunoprecipitated with anti-p53 antibody (mock IgG as control), collected on Protein A/G PLUS-Agarose overnight at 4 °C, washed three times, western blot of endogenous proteins
substance,measurement,value
cullin 4 A (from UniProt Q13619 1-759),binding,binds
